Experimental data reported in PubChem BioAssay AID1487 (National Center for Advancing Translational Sciences (NCATS), 2009).
Some of the results follow. Shown are side measurements of this screen, not its main read-out; they come without a call. Most of these compounds were active or inconclusive in the main read-out, so they are no random draw. The note in brackets gives the kind of curve behind each potency; many fits are weak.

Assay: qHTS Assay for Modulators of Lamin A Splicing
Conditions: HeLa LMNA splicing GFP/RFP minigene ratio, 48 h
How it was run: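 Read-out is the ratio of GFP to DsRed2 object intensity, acquired by 488 nm laser-scanning cytometry on HeLa lamin A-EGFP minigene reporter cells. Compound incubation 48 hrs at 37 °C in Opti-MEM with 2% FBS; DMSO 0.5% final.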

[1] = measured here: RFP viability control channel
[2] = measured here: GFP splicing reporter channel

SMILES	AC50 [1]	AC50 [2]
CC(C)CC(CO)N1CCN(C(=O)c2cccc(C(F)(F)F)c2)CCC1=O (stereo not given)	20 µM [rising, single point]	
O=C(Nc1ccc2snnc2c1)Nc1cccc2ccccc12	11.2 µM [rising, single point]	
Cc1ccc(CNC(=O)c2c(Nc3ccccc3C)sc(C(=O)c3ccc(F)cc3)c2N)cc1	3.16 µM [falling, partial curve]	8.91 µM [falling, single point]
Cc1sc(NC(=O)CCCC(=O)O)c(C(N)=O)c1-c1ccccc1	8.91 µM [falling, partial curve, poor fit]	
COC(=O)c1cn(NC(=O)Cc2ccc(OC)c(OC)c2)c(=O)c2ccccc12	3.98 µM [falling, single point]	6.31 µM [falling, single point]
O=[N+]([O-])c1ccc(-c2cnc(SCc3ccccc3Cl)[nH]2)cc1	15.8 µM [falling, single point]	12.6 µM [falling, single point]
Cc1ccc(CNC(=O)c2c(Nc3c(C)cccc3C)sc(C(=O)c3ccccc3)c2N)cc1	11.2 µM [falling, partial curve]	10 µM [falling, partial curve]
C=CCOc1cccc(/C=C2\C(=O)N(Cc3ccc(C)cc3)C(C)=C2C(=O)OC)c1	17.8 µM [rising, partial curve]	
O=C(Nc1nc2ccc([N+](=O)[O-])cc2s1)c1c(F)cccc1F	0.01 µM [falling, full curve, poor fit]	
O=C(N/N=C/c1ccccc1Cl)c1[nH]c2ccc(Br)cc2c1-c1ccccc1	0.562 µM [rising, full curve]	
O=C1c2cccc(OCC(=O)N3N=C(c4cccs4)CC3c3ccc(F)cc3)c2CCN1Cc1cccnc1 (stereo not given)	14.1 µM [rising, partial curve, poor fit]	
COc1ccc(CCNC(=O)c2ccc(CNS(=O)(=O)c3cccc(Cl)c3)cc2)cc1OC	35.5 µM [rising, single point]	
COc1ccc(CCN2C(=O)CS/C2=N\NC(=O)c2ccc(C(C)(C)C)cc2)cc1OC	11.2 µM [rising, partial curve]	
Cc1ccccc1-c1ccc2ncnc(-n3ccnc3)c2c1	2 µM [falling, full curve]	1.41 µM [falling, full curve]
O=[N+]([O-])c1nn(-c2ccccc2)n(O)c1=NCCc1ccccc1	20 µM [rising, partial curve]	22.4 µM [rising, single point]
COc1ccc(-c2nc3sc(CCNC(=O)C(=O)Nc4ccccc4C#N)c(C)n3n2)cc1	22.4 µM [falling, partial curve, poor fit]	
CCC1C/C(=C/c2cccs2)C(=O)/C(=C/c2cccs2)C1 (stereo not given)	12.6 µM [rising, single point]	
S=C1NC2(CCCCC2)NN1c1ccccc1		3.98 µM [rising, full curve, poor fit]
COc1ccc(/C=C/C(=O)Nc2ccc(-n3nncc3-c3ccccc3)cc2)cc1OC	25.1 µM [rising, single point]	

SMILES	AC50 [1]	AC50 [2]
O=c1cc(/C=C/c2cccs2)[nH]c2ccccc12	35.5 µM [rising, single point]	
Cc1cccc(-n2c(SCC(=O)Nc3ccc(C)c(C)c3)nc3n[nH]c(C)c3c2=N)c1		0.00316 µM [rising, full curve, poor fit]
c1ccc(-c2cccc(-c3ccccn3)n2)nc1	5.62 µM [rising, single point]	
O=[N+]([O-])c1ccc(NC(=S)NCCc2ccccc2)cc1	31.6 µM [rising, single point]	14.1 µM [rising, partial curve]
Cc1ccc(NC(=O)c2ccc(C)c(S(=O)(=O)N3CCCCCC3)c2)cc1	35.5 µM [falling, single point]	35.5 µM [falling, single point]
COc1ccc2c(Cl)c(C(=O)NC3CCS(=O)(=O)C3)sc2c1 (stereo not given)		1.12 µM [rising, partial curve, poor fit]
O=c1[nH]nc(Cc2ccc(Cl)cc2Cl)c2ccccc12	14.1 µM [rising, partial curve]	8.91 µM [rising, partial curve]
O=C(CSc1nc2ccccc2n1CCc1ccccc1)NC1CC1		2 µM [falling, partial curve, poor fit]
O=C(/C=C/c1ccc2c(c1)OCO2)Nc1ccc(Cl)cn1	14.1 µM [rising, partial curve, poor fit]	15.8 µM [rising, partial curve, poor fit]
O=C1CCC(/C=C/c2ccccc2)=NN1Cc1ccccc1		22.4 µM [falling, partial curve]
CCCCc1nn2c(=O)cc(COC(=O)CNC(=O)COc3ccc(C)cc3)nc2s1		0.0251 µM [falling, full curve, poor fit]
CCS(=O)(=O)N1Cc2ccccc2CC1C(=O)Nc1ncc(C)s1 (stereo not given)		0.00501 µM [falling, full curve, poor fit]
CCOc1ccc(NC(=O)c2c(NCc3cccs3)sc3c2CCC(C)C3)cc1 (stereo not given)	31.6 µM [rising, single point]	
COCCn1c(SCC(=O)N2CCc3ccccc3C2)nc2cc(Cl)ccc2c1=O		5.62 µM [rising, partial curve]
Cc1cc(NC(=O)c2ccc(N3CCCC3)c([N+](=O)[O-])c2)no1	20 µM [rising, single point]	
CN(n1cnc2ccccc2c1=O)S(C)(=O)=O		0.112 µM [falling, full curve]
COc1ccc(NC(=O)Nc2cc(C(=O)NCc3ccc(C)cc3)ccc2N2CCCC2)cc1	7.08 µM [rising, partial curve]	2.82 µM [rising, full curve]
CCC/C(O)=C1\C(=O)CC(C)(C)CC1=Nc1ccccc1O	35.5 µM [falling, partial curve]	35.5 µM [falling, partial curve, poor fit]
COc1ccccc1N(C(=O)c1cncc(Br)c1)c1nc(-c2ccc(C)cc2)cs1	10 µM [rising, partial curve]	11.2 µM [rising, partial curve]

SMILES	AC50 [1]	AC50 [2]
O=C1CC(c2ccccc2)CN1C(=O)c1cccnc1 (stereo not given)	0.00562 µM [falling, full curve, poor fit]	
Cc1cccc(NC(=S)N(CCCN2CCOCC2)Cc2ccccn2)c1	0.178 µM [rising, full curve, poor fit]	
O=C(NCc1ccc(OC(F)(F)F)cc1)C1CC(c2c(Cl)cccc2Cl)=NO1 (stereo not given)	17.8 µM [rising, single point]	14.1 µM [rising, single point]
COC(=O)C1=C(N)Oc2cc(C)n(CCN3CCOCC3)c(=O)c2C1c1cccnc1 (stereo not given)	0.251 µM [falling, full curve]	
CN(C)S(=O)(=O)c1ccc(C(=O)Nc2nc(-c3cc4ccccc4o3)cs2)cc1	2.82 µM [rising, full curve]	3.55 µM [rising, partial curve]
S=C(NCc1ccc(Cl)cc1)Nc1ccccc1		31.6 µM [rising, single point]
Cc1ccc(-n2ncc3c(=O)[nH]c(SCC(=O)N4CCOCC4)nc32)cc1	1.58 µM [rising, partial curve, poor fit]	
Cn1cccc1/C=N/NC(=O)c1cc(-c2cccs2)nc2ccccc12	22.4 µM [rising, single point]	35.5 µM [rising, single point]
CCCCCCN(C(=O)CCCCCN1C(=O)NC(c2ccc(-c3ccccc3)cc2)C(C(=O)OCc2ccccc2)=C1C)C(C)C(=O)NCCCC (stereo not given)	14.1 µM [rising, partial curve]	
COc1ccc(N2CC(NC(=O)N3CCN(c4ccccc4)CC3)CC2=O)cc1 (stereo not given)		0.01 µM [rising, full curve, poor fit]
Cc1cc(Nc2cccc(Cl)c2)nc2ccc(NC(=O)COc3ccc(Cl)cc3)cc12	25.1 µM [falling, single point]	25.1 µM [falling, single point]
CCCOC(=O)c1cccc(NC(=O)COc2ccc([N+](=O)[O-])cc2)c1	22.4 µM [rising, partial curve]	
CCc1cccc2c(N=O)c(O)[nH]c12	35.5 µM [rising, single point]	
CCOC(=O)C1=C2SCCN2C(=O)C(C#N)C1(C)C (stereo not given)	0.01 µM [falling, full curve, poor fit]	
CNC(=S)N(Cc1cccs1)Cc1cc2ccc(OC)cc2[nH]c1=O	20 µM [rising, partial curve, poor fit]	22.4 µM [rising, single point]
Cn1c(=O)c2[nH]c(-c3ccccc3Cl)c(O)c2n(C)c1=O	7.94 µM [falling, partial curve]	
COc1cccc(Nc2nnc(SCC(=O)N(CC(C)C)CC(C)C)s2)c1	14.1 µM [rising, single point]	11.2 µM [rising, single point]
Cc1cc(C)c(NC(=O)CSc2nc3c(c(=O)n2C)SC(C)C3)c(C)c1 (stereo not given)	5.01 µM [rising, partial curve]	

Single values from the results shown.
AC50 [1], C=CCOc1cccc(/C=C2\C(=O)N(Cc3ccc(C)cc3)C(C)=C2C(=O)OC)c1 is entered as 17.8 µM [rising, partial curve]
AC50 [2], O=C(/C=C/c1ccc2c(c1)OCO2)Nc1ccc(Cl)cn1 is entered as 15.8 µM [rising, partial curve, poor fit]
AC50 [1], CCC/C(O)=C1\C(=O)CC(C)(C)CC1=Nc1ccccc1O is entered as 35.5 µM [falling, partial curve]
AC50 [1], Cc1cc(Nc2cccc(Cl)c2)nc2ccc(NC(=O)COc3ccc(Cl)cc3)cc12 is entered as 25.1 µM [falling, single point]
AC50 [2], CCCCc1nn2c(=O)cc(COC(=O)CNC(=O)COc3ccc(C)cc3)nc2s1 is entered as 0.0251 µM [falling, full curve, poor fit]
